Test system: A549 cells
Test: Colocalization of organic salt with Rhodamine123 (mitochondrial) fluorescence
Type: cell-based, human
Settings: for Mander's Coefficient 2: overlap of green to red area; for Mander's Coefficient 1: overlap of red to green area; for Pearson's Coefficient: red (organic salt) vs green (Rhodamine123) fluorescence

SMILES	Mander's Coefficient 2	Mander's Coefficient 1	Pearson's Coefficient
CCN1C(=CC=C2CCCC(C=CC3=[N+](CC)c4ccc5ccccc5c4C3(C)C)=C2Cl)C(C)(C)c2c1ccc1ccccc21.Fc1c(F)c(F)c([B-](c2c(F)c(F)c(F)c(F)c2F)(c2c(F)c(F)c(F)c(F)c2F)c2c(F)c(F)c(F)c(F)c2F)c(F)c1F [CyTPFB]	0.983	0.967	0.901
CCN1C(=CC=C2CCCC(C=CC3=[N+](CC)c4ccc5ccccc5c4C3(C)C)=C2Cl)C(C)(C)c2c1ccc1ccccc21.F[P-](F)(F)(F)(F)F [CyPF6]	0.971	0.991	0.852
CCN1C(=CC=C2CCCC(C=CC3=[N+](CC)c4ccc5ccccc5c4C3(C)C)=C2Cl)C(C)(C)c2c1ccc1ccccc21.Fc1ccc([B-](c2ccc(F)cc2)(c2ccc(F)cc2)c2ccc(F)cc2)cc1 [CyFPhB]	0.992	0.997	0.853

— patent US12478677B2, “Tunable luminescent organic salts for enhanced imaging and photodynamic therapy” (BOARD OF TRUSTEES OF MICHIGAN STATE UNIVERSITY, priority 2017, dated 2025)
